Experimental findings from the supplement of paper PMC11150407 are described below.

Out of some 3,000 compounds screened, about 45 (2%) showed an effect of 50% or more. Some of the results follow.

As usually defined, the cell viability is a read-out of living cells in per cent, often relative to untreated cells.

The subject of the assay is MOLM1 and UCSD/AML1 (averaged). Briefly: cell viability relative to DMSO control (POC); higher = less growth inhibition. To be noted: 1 µM; 72 h. The procedure: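 Primary viability screen in the 3q26 EVI1-high AML cell lines MOLM1 and UCSD/AML1, compounds at 1 uM for 72 h. ATP CellTiter-Glo read-out given as percent viable over DMSO control (POC), averaged over duplicates. This mapping covers the TimTec NDL-3000 natural derivative library, whose compounds are identified by TimTec catalogue codes (ST...).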
For the compound `CC(C)CC1(NC(=O)c2ccccc2)COCOC1=O` (stereo not given), the cell viability is 95.3%.
As for `COc1ccccc1CCNC(=O)Cc1c(C)c2cc3c(C)coc3c(C)c2oc1=O`, the figure is 103%.
Regarding `Cc1[nH]c2c(Cl)ccc(Cl)c2c1CCNC(=O)Cn1nc(-c2ccc(Cl)cc2)c2ccccc2c1=O`, the cell viability amounted to 98.8%.
The figure for `COc1ccc(C(=O)Nc2cc3c(cc2C)OCO3)cc1OC` is 96.5%; for `Cc1ccc(NC(=O)C(Cc2c[nH]c3ccccc23)NC(=O)Oc2ccccc2)cc1` (stereo not given) it is 93.2%.
As for `COc1ccc2c(c1)c(CC(=O)Nc1ccc3c(c1)OCCO3)c(C)n2C(=O)c1ccc(Cl)cc1`, the figure is 89%.
The figure for `Cc1ccc(OCCSc2nc3ncnc(N)c3[nH]2)cc1` is 114%; for `CC(=O)OC1CCC2(C)C(CCC3(C)C2C(=O)C=C2C4CC(C)(C(=O)Nc5ccc(N=Nc6ccccc6)cc5)CCC4(C)CCC23C)C1(C)C` (stereo not given) it is 100%.
`COCCOC(=O)c1c(C)n(CCNc2ccc([N+](=O)[O-])cc2)c2c1cc(O)c1ccccc12`: the cell viability amounted to 102%.
The figure for `Nc1ccc2oc(=O)ccc2c1` is 99.2%.
The figure for `COc1cc(C(=O)CCNc2ccc(F)cc2)cc(OC)c1OC` is 78.3%; for `Cc1ccc(-n2c(SCc3cn4ccccc4n3)nc3c(=O)[nH]cnc32)cc1` it is 98.3%; for `Cc1nn(-c2ccccc2)c(C)c1/C=C/C(=O)c1ccc2c(c1)OCO2` it is 95.8%.
As for `Cc1[nH]c(=O)[nH]c(=O)c1S(=O)(=O)Nc1cccc(C(=O)O)c1`, the figure is 99.6%; as for `N#CC1=C(N)Oc2c(oc(CO)cc2=O)C1c1cccc(Cl)c1` (stereo not given), 104%; as for `COc1cc(-c2nnc(SCc3csc(-c4ccc(C)cc4)n3)o2)cc(OC)c1OC`, 92.1%.
As to `Cc1cc(=O)n(C)c(=O)n1Cc1ccccc1C(=O)O`, the cell viability turned out to be 101%.
In the case of `CCc1ccc(NC(=O)Cn2c(=O)cc(C(=O)N(C)C)c3ccccc32)cc1`, the cell viability amounted to 101%.
As for `CCOc1cc(C2C3=C(CC(C)(C)CC3=O)N(c3ccc(C)cc3)C3=C2C(=O)CC(C)(C)C3)ccc1O`, the figure is 100%; as for `CC(=O)O[C@]1(C(=O)CO)CCC2C3CCC4=CC(=O)CC[C@]4(C)C3[C@@H](O)C[C@@]21C` (stereo not given in full), 79.2%.
Consider `CCCCCCCCCCC(=O)CCCC(=O)O`, for which the cell viability came to 72.8%.
As for `O=C(Cn1c(=O)cc(C(=O)NCc2ccccc2)c2ccccc21)Nc1ccc2c(c1)OCO2`, the figure is 87.3%; as for `COc1ccc2nc(NC(=O)CN3CCN(C(=O)c4ccco4)CC3)sc2c1`, 102%.
The figure for `Cc1ccc(NC(=O)CSc2nc3ccccc3c(=O)[nH]2)cc1` is 105%; for `Cc1ccc(-n2c(SCC(=O)Nc3cccc(C)c3)nc3c(=O)[nH]cnc32)cc1` it is 104%; for `Cc1ccc2ccccc2c1CSc1nc(N)cc(=O)[nH]1` it is 94.7%.
Regarding `O=c1[nH]c2ccc(Cl)cc2c(-c2ccccc2)c1N1CCN(CCO)CC1`, the cell viability was 57%.
As for `CCN(CC)CCN1C(=O)c2ccccc2NC1c1cc(OC)c(OC)c(OC)c1` (stereo not given), the figure is 99.2%; as for `Cn1c(=O)[nH]c(=O)c2c1ncn2CC(=O)O`, 96.8%; as for `O=C(O)C1NCCc2ccccc21` (stereo not given), 101%.
For the compound `CC(CCc1ccccc1)NC(=O)CSc1nc2ccccc2c(=O)[nH]1` (stereo not given), the cell viability was determined as 102%.
The figure for `Cc1cc2nc[nH]c2c(N=Cc2c(O)c(O)c(C(C)C)c3cc(C)c(-c4c(C)cc5c(C(C)C)c(O)c(O)c(C=Nc6c(C)c(C)cc7nc[nH]c67)c5c4O)c(O)c23)c1C` is 99.7%.
The figure for `Cc1cc(C)c2c(CN3CCN(c4cc(Cl)ccc4C)CC3)cc(=O)oc2c1` is 105%; for `COc1ccc(C2C3CCCCC3(O)CCN2C(=O)/C=C/c2ccc(OC)c(OC)c2)c(OC)c1` (stereo not given) it is 113%.
The figure for `COc1cc(/C=C2\SC(=Nc3ccccc3)NC2=O)ccc1O` is 69.8%; for `C=CCNC(=O)c1c(O)c2cc(OC)c(OC)cc2n(CC=C)c1=O` it is 85.7%; for `Cn1c(=O)c2c(nc(N3CCOCC3)n2CCCNC2=NCCCC2)n(C)c1=O` it is 102%.
As for `COc1cc(C(C)=O)cc(OC)c1O`, the cell viability stood at 102%.
As for `CC(=O)OC1CCC2(C)C(CCC3(C)C2C(=O)C=C2C4CC(C)(C(=O)OC(C)N5CCCCC5)CCC4(C)CCC23C)C1(C)C` (stereo not given), the figure is 86.9%.
As for `COc1ccc(C2CC(=O)c3ccccc3O2)cc1` (stereo not given), the figure is 96.2%.
As for `Cc1cc2oc(=O)c([N+](=O)[O-])c(O)c2cc1Cl`, the figure is 97.5%.
For `COc1ccc(C2C3CCCCC3(O)CCN2C(=O)c2ccccc2)c(OC)c1` (stereo not given), the cell viability was 101%.
As for `COc1ccc(C(=O)Nc2cccc(C3OCCO3)c2)cc1OC`, the figure is 96.5%; as for `O=C(O)C(=O)c1ccccc1C(=O)O`, 95%.
As for `CCOc1ccc2oc(=O)cc(CN3CCN(CC(=O)Nc4cc(F)ccc4F)CC3)c2c1`, the figure is 98.5%.
As for `O=C(Nc1ccc(Cl)cc1Cl)C1CC2CC3CCC1C2C3` (stereo not given), the figure is 97.6%; as for `CCOC(=O)COc1ccc(C=C(C#N)C#N)cc1OC`, 93.9%.
In the case of `COc1ccccc1NC(=O)COC(=O)c1cc(=O)n(C)c(=O)n1C`, the cell viability is 94.5%.
Take `CC1=CC(=O)c2ccccc2C1=O`: the cell viability amounted to 87%.
The figure for `Cc1ncnc2nc[nH]c12` is 3.11%; for `CN1CCc2[nH]c3ccccc3c2C1` it is 110%; for `C#C[C@]1(OC(C)=O)CC[C@H]2[C@@H]3CCC4=CC(=O)CC[C@@H]4[C@H]3CC[C@@]21C` it is 81.9%.
The figure for `Cc1ccc(-n2c(SCC(=O)Nc3ccc(C(C)C)cc3)nc3c(=O)[nH]cnc32)cc1` is 100%; for `COc1cc(C(=O)NNC(=O)CCCCCCCC(=O)NNC(=O)c2cc(OC)c(OC)c(OC)c2)cc(OC)c1OC` it is 102%; for `CCN(CC)CCNc1c(N)c(=O)oc2ccccc12` it is 94.5%.
The figure for `CCCc1[nH]nc2c1C(c1cc(OC)c(OC(C)=O)c(OC)c1)C(C#N)=C(N)O2` (stereo not given) is 101%; for `COc1cc(OC)cc(C2C(C#N)=C(N)OC3=C2C(=O)CCC3)c1` (stereo not given) it is 87.3%; for `Cn1c(C(=O)NCCOc2ccccc2Cl)cc(=O)n(C)c1=O` it is 110%.
Regarding `CCCCOC1CC[C@@]2(C)C(=CC[C@H]3[C@@H]4CC[C@H]([C@H](C)CCCC(C)C)[C@@]4(C)CC[C@@H]32)C1` (stereo not given in full), the cell viability stood at 101%.
As for `COc1ccc2c(c1)c(CC(=O)Nc1ccccn1)c(C)n2C(=O)c1ccc(Cl)cc1`, the figure is 101%; as for `O=C(/C=C/c1ccccc1)c1cc(O)ccc1O`, 93.7%.
Take `Cc1ccc(OCCSc2ncnc3nc[nH]c23)cc1`: the cell viability came out at 92.7%.
As for `COc1ccc2[nH]c3c(c2c1)CCNC3c1ccc(OC)c(COc2ccc([N+](=O)[O-])c(C)c2)c1` (stereo not given), the figure is 64.7%.
As for `Cc1ccccc1Cn1cc(NC(=S)N2CCc3ccccc3C2)cn1`, the figure is 99.5%.
The figure for `CCn1c(=O)c(NC(=O)c2ccccc2)c(C(=O)Nc2ccccc2)c2ccccc21` is 93%.
